Results reported in patent US6113896A, “Pharmaceutical compositions containing ecotin and homologs thereof” (priority 1994, dated 2000).

Test system: FXa
Assay: Cleavage of ecotin by FXa
Design: species or system human

Ecotin: E. coli periplasmic protein having the 142 amino acid residue sequence reported by McGrath et al.; recombinant, P1 Met84
cleavage of ecotin by FXa (pH 4.0, between Met84 and Met85): slow cleavage; also recorded: cleaves ecotin slowly
cleavage of ecotin by FXa (pH 7.5): much less than that occurring at pH 4.0; also recorded: very little cleavage

Entries after “also recorded” stand apart in the source; their conditions may differ.
